In patent publication US8691198B2, “Environmentally benign plasticizers based on derivatives of acetone” (priority 2010, dated 2014):

Experiment: Tensile and elongation of plasticized poly(vinyl butyraldehyde) film (Instron 5500 Tensiometer)
Conditions: PVB film, 28.78 % loading of plasticizer

Compound: CCOC1(COC(=O)CC(C)C)COC(COC(=O)CC(C)C)(OCC)CO1 (centres unmarked) [Bis-isovalerate]
- Elongation (%): 64.55%
- Tensile (ksi): 0.523 ksi
